According to patent US8906430B2, “Use of hypericum perforatum extracts in the treatment of neuropathic pain” (Aboca S.p.A. Societa' Agricola, priority 2008, dated 2014):
At least one structure is not confirmed: it was looked up by name or label, or the drawing left a doubt.

Tested on: neuropathic pain
Assay: Experimental models of neuropathic pain (summary statements)
Assay type: in vivo, rodents
Conditions: various experimental models, oral administration
Procedure: The studies were conducted on rodents, which have always constituted a good animal model to reproduce the characteristics of human pain symptoms and predict possible remedies.

Q: With `Cc1cc(O)c2c(=O)c3c(O)cc(O)c4c5c(O)cc(O)c6c(=O)c7c(O)cc(C)c8c1c2c(c34)c(c78)c65` [HYPERICIN, hypericin] as the compound, how does the “Reduction of the symptoms of neuropathic pain” value read?
A: The value was “effective in reducing the symptoms of neuropathic pain”.
